In assay [1] the target is Recombinant KLK7 residues I30-R253 (SEQ ID NO: 4), crystallisation construct (human) (UniProt P49862). Nature of the assay: complex formation, size-exclusion chromatography.
The target is the same in assay [2]. Nature of the assay: X-ray crystal structure.

By UniProt entry, the sequences of proteins in these tests, tags left out. Where a name states a change or a piece, a line headed by the entry shows the natural chain unless it says otherwise.
UniProt P49862: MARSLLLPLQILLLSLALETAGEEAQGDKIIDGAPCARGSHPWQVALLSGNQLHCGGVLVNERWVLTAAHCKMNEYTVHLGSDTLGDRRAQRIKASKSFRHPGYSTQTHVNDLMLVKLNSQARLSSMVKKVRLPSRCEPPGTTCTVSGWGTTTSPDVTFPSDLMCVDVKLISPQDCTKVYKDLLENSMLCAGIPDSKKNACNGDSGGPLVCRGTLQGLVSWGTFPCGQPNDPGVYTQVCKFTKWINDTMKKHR

Results are given in words; binding and its absence hold for the method and conditions named. Some binding calls cover weakened binding; strength is not graded here.

B1: anti-KLK7 rb.14H11c Fab (Fab, V domains shown)
VH: QSLEESGGDLVKPGASLTLTCTASGFSFSSSYYMSWVRQAPGKGLEWIASIYAGSSGAPYYAGWAKGRFTISKTSSTAVTLQMSSLTAADTATYFCAREGFAETGGYGYAAYFNLWGPGTLVTVSS
VL: AIEMTQSPPSLSASVGETVRIRCLASEDIANSVSWYQQKPGKPPTLLIYGASNLESGVPPRFTGSGSGTDYTLTIGGVQAEDAATYYCLGGYSYSSTGTAFGAGTKVEINR
As for B1, the binding entry in assay [1] and in assay [2] was “binds” each time.

The values above are taken from patent publication US20240084042A1.
